{"source": "PubChem BioAssay AID743121 (NCATS, 2013)", "test": "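Genes whose silencing strengthens cell killing by camptothecin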 (primary screen)", "cells": "MDA-MB-231 cells, a human breast cancer line", "reagent": "single siRNA against human genes, 20 nM siRNA (0.8 pmol per well)", "duration": "120 h (drug added 48 h after transfection, read 72 h later)", "treatment": "camptothecin 20 nM (about EC30) for 72 h; vehicle 0.1% DMSO in parallel plates", "detection": "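Cell viability by ATP luminescence (CellTiter-Glo) as % of non-targeting siRNA wells, and the log2 ratio of viability without drug over viability with camptothecin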", "reading the numbers": "log2 vehicle/camptothecin viability: higher = stronger sensitisation to camptothecin", "active means": "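Active genes have an RSA gene-level p-value below 0.001, computed from the ratios of their separate siRNAs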", "note": "In all, the deposit lists about 26,000 reagents; below is an unselected part. In the full data, 167 (0.63%) were called active. 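Calls are per gene from RSA p-values that are not deposited; an individual active-marked siRNA can sensitise only weakly.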 Entries without a mark were called inactive. Reagents against one gene are numbered here. Not all columns of the deposit are shown."}
The first 4 entries as a preview:
{"gene": "CD226 (GeneID 10666)", "siRNA no.": 1, "log2 vehicle/camptothecin viability": 0.113}
{"gene": "CD226 (GeneID 10666)", "siRNA no.": 2, "log2 vehicle/camptothecin viability": -0.0822}
{"gene": "CD226 (GeneID 10666)", "siRNA no.": 3, "log2 vehicle/camptothecin viability": -0.342}
{"gene": "CD226 (GeneID 10666)", "siRNA no.": 4, "log2 vehicle/camptothecin viability": -0.632}

The listing, from the first entry:
{"gene": "CD226 (GeneID 10666)", "siRNA no.": 1, "log2 vehicle/camptothecin viability": 0.113}
{"gene": "CD226 (GeneID 10666)", "siRNA no.": 2, "log2 vehicle/camptothecin viability": -0.0822}
{"gene": "CD226 (GeneID 10666)", "siRNA no.": 3, "log2 vehicle/camptothecin viability": -0.342}
{"gene": "CD226 (GeneID 10666)", "siRNA no.": 4, "log2 vehicle/camptothecin viability": -0.632}
{"gene": "PGRMC2 (GeneID 10424)", "siRNA no.": 1, "log2 vehicle/camptothecin viability": -0.272}
{"gene": "PGRMC2 (GeneID 10424)", "siRNA no.": 2, "log2 vehicle/camptothecin viability": -0.0958}
{"gene": "PGRMC2 (GeneID 10424)", "siRNA no.": 3, "log2 vehicle/camptothecin viability": -0.0942}
{"gene": "PGRMC2 (GeneID 10424)", "siRNA no.": 4, "log2 vehicle/camptothecin viability": 0.263}
{"gene": "TLE5 (GeneID 166)", "siRNA no.": 1, "log2 vehicle/camptothecin viability": 0.01}
{"gene": "TLE5 (GeneID 166)", "siRNA no.": 2, "log2 vehicle/camptothecin viability": -0.26}
{"gene": "TLE5 (GeneID 166)", "siRNA no.": 3, "log2 vehicle/camptothecin viability": -0.328}
{"gene": "TLE5 (GeneID 166)", "siRNA no.": 4, "log2 vehicle/camptothecin viability": -0.306}
{"gene": "RAB30 (GeneID 27314)", "siRNA no.": 1, "log2 vehicle/camptothecin viability": 0.426}
{"gene": "RAB30 (GeneID 27314)", "siRNA no.": 2, "log2 vehicle/camptothecin viability": -0.131}
{"gene": "RAB30 (GeneID 27314)", "siRNA no.": 3, "log2 vehicle/camptothecin viability": -0.72}
{"gene": "EDA (GeneID 1896)", "siRNA no.": 1, "log2 vehicle/camptothecin viability": 0.338}
{"gene": "EDA (GeneID 1896)", "siRNA no.": 2, "log2 vehicle/camptothecin viability": -0.193}
{"gene": "EDA (GeneID 1896)", "siRNA no.": 3, "log2 vehicle/camptothecin viability": -0.555}
{"gene": "EDA (GeneID 1896)", "siRNA no.": 4, "log2 vehicle/camptothecin viability": -0.29}
{"gene": "NKD2 (GeneID 85409)", "siRNA no.": 1, "log2 vehicle/camptothecin viability": 0.155}
{"gene": "NKD2 (GeneID 85409)", "siRNA no.": 2, "log2 vehicle/camptothecin viability": 0.171}
{"gene": "NKD2 (GeneID 85409)", "siRNA no.": 3, "log2 vehicle/camptothecin viability": -0.134}
{"gene": "NKD2 (GeneID 85409)", "siRNA no.": 4, "log2 vehicle/camptothecin viability": -0.15}
{"gene": "KLF6 (GeneID 1316)", "siRNA no.": 1, "log2 vehicle/camptothecin viability": 0.128}
{"gene": "KLF6 (GeneID 1316)", "siRNA no.": 2, "log2 vehicle/camptothecin viability": 0.753}
{"gene": "KLF6 (GeneID 1316)", "siRNA no.": 3, "log2 vehicle/camptothecin viability": -0.073}
{"gene": "KLF6 (GeneID 1316)", "siRNA no.": 4, "log2 vehicle/camptothecin viability": -0.107}
{"gene": "DIMT1 (GeneID 27292)", "siRNA no.": 1, "log2 vehicle/camptothecin viability": 0.423}
{"gene": "DIMT1 (GeneID 27292)", "siRNA no.": 2, "log2 vehicle/camptothecin viability": -0.296}
{"gene": "DIMT1 (GeneID 27292)", "siRNA no.": 3, "log2 vehicle/camptothecin viability": -0.199}
{"gene": "DIMT1 (GeneID 27292)", "siRNA no.": 4, "log2 vehicle/camptothecin viability": -0.176}
{"gene": "PNCK (GeneID 139728)", "siRNA no.": 1, "log2 vehicle/camptothecin viability": -0.225}
{"gene": "PNCK (GeneID 139728)", "siRNA no.": 2, "log2 vehicle/camptothecin viability": -0.406}
{"gene": "PNCK (GeneID 139728)", "siRNA no.": 3, "log2 vehicle/camptothecin viability": -0.031}
{"gene": "PNCK (GeneID 139728)", "siRNA no.": 4, "log2 vehicle/camptothecin viability": -0.519}
